This sample is rich in variants without activity.
B1: tRNA (parent)
chain: GUUCCGUUGGCGUAAUGGUAACGCGUCUCCCUCCUAAGGAGAAGACUGCGGGUUCGAGUCCCGUACGGAACG

Variants of: B1
Assay: yeast fitness relative to wild type (ratio to wild type); higher = fitter; tRNA-Arg(CCU), competitive growth, 37 C, YPD
Method in brief: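 A pool of Saccharomyces cerevisiae strains, each with a tRNA-Arg(CCU) gene variant at the native genomic locus, was competed in YPD at 37°C for 24 hours across six parallel replicates. The variants had been chemically synthesised at a 3% per-site mutation rate over 69 sites, and gene amplicons before and after competition were read by 100-nucleotide paired-end sequencing. Darwinian fitness relative to wild type rested on changes in genotype frequencies. Genotypes required ≥ 100 starting reads, and estimates < 0.5 were set to 0.5.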

Variant | yeast fitness
GUUCUGUAGGCGUAAUGGUAACGCGUCUCCCUCCUAAGGAGGAGACUGCGGGUUCGAGUCCCGUACGGCACG | ≤ 0.5
GUUCUGUAGGCGUAAUGCUAACGCGUCUCCCUCCUAAGGAGAAGAUUGCGAGUUCGAGUCCCGUAUGGAACG | ≤ 0.5
GUUCUGUUGGCGAAGUGGUAACGCGUCUCCCUCCUAAGGAGAAGACUGCGGGUUUGUGUCCCGGACGGAACG | ≤ 0.5
GUUCUGUUGGCGCAAUGGUAACGCGUCUCUCUCCUAAGGGGAAGACUGCAGGUUCGAGUCCCGUACGGAACG | ≤ 0.5
GUUCUGUUGGCGCAAUGGAAUCGAGUCUCCCUCCUAAGGAGAAGACUGCGGGUCCGAGCCCCGUACGGGACG | 0.524
GUUCUGUUGGCGUAACGGUAACGCGUCUCCCUCCUAAGGAGAUGACUGUGGGUUCGAGUCCCGUACGGAACG | ≤ 0.5
GUUCUGUUGGCGUAACGGUAACGCGUCUCCCUCCUAAGGAGAAGACUGGGGGUUCGAGUCCCGUAUGGAACG | ≤ 0.5
GUUCUGUUGGCGUAAGGGUAACGCGUCUCCCUCCUAAGGAGAUGACUGCGGGUUCGAAUCCCGUACGGAACG | ≤ 0.5
GUUCUGUUGGCGUAAUGGAAACGCCUCUCCCUCCUAAGGAGAUGACUGCGGGUUCGAGUCCCGUACGGAACG | 0.758
GUUCUGUUGGCGUAAUGGCAACGGGUCUCCCUCCUAAGGAGAAGACUGCGGGUUCGAGUCCCGUACGGAACG | ≤ 0.5
GUUCUGUUGGCGUAAUGGUAACGCGUCACCCUCCUAAGGAGAAGACUGCGGGUUCGAGUCCGAUACGGAACG | ≤ 0.5
GUUCUGUUGGCGUAAUGGUAACGCGUCCCCCUCCUAAAGCGAAGACUGCGGGUUCGAGUCCCGUACGGAACG | ≤ 0.5
GUUCUGUUGGCGUAAUGGUAACGCGUCCCCCCCCUAAGAAGAAGACUGCGGGUUCGAGUUGCGUACGGAACG | ≤ 0.5
GUUCUGUUGGCGUAAUGGUAACGCGUCUCCCUCCGAAUGAGAAGUCUGCGGGUUCGCGUCCCGUACGGAACG | ≤ 0.5
GUUCUGUUGGCGUAAUGGUAACGCGUCUCCCUCCUAAGGAGAAGACCGCGGGUUCGGGUCCUGUACGGAACG | ≤ 0.5
GUUCUGUUGGCGUAAUGGUAACGCGUCUCCCUCCUAAGGAGAAGACCGUGGGUUCGAGUCCCGAACGGAACG | ≤ 0.5
GUUCUGUUGGCGUAAUGGUAACGCGUCUCCCUCCUAAGGAGAAGACUGCGGGAACGAGUACCGUACGGUACG | ≤ 0.5
GUUCCAUUGGCGUCAUGGUAACGCGUCUCCCUCCUAUGGAGAAGACUGCGGGUUCGAGUCCCGUACGGAACG | 0.689
GUUCCAUUGGCGUCAUGGUAACGCGUCUCCCUCGUAAGGAGAAGACUGCGGGUUCGUGUCCCGUACGGAACG | ≤ 0.5

Variant | yeast fitness
GUUCCAUUGGCGUGAUGGUAACGCGUCUCCCUCCUGAGGAGAAGACUACGGGUUCGAGUCCCGGACGGAACG | ≤ 0.5
GUUCCAUUGGCGUGAUGGUAACGCGUCUCCCUCCUAAGGAGGAGACUGCGGGUUCGAGUCCCGUACGGAACG | 0.549
GUUCCAUUGGCGUACUGGUAACGCGUCUCCCUCCUAAGGAGAAGACUGCGGGUUCGGGUCCCGAAAGGCACG | ≤ 0.5
GUUCCAUUGGCGUAGUGGUAACGUGUCUCCCUCCUAAGGAGAAGACUGCGGGUUCGAGUCGCGUAUGGUACG | ≤ 0.5
GUUCCAUUGGCGUAGUGGUAACGCGUCUCACUCCUAAGGAGAAGACUGCGGGUUCGAGUCCCGUACGGAACG | ≤ 0.5
GUUCCAUUGGCGUAGUGGUAACGCGUCUCCCGCCUAAGGAGAAGCCUGCGGGUUCGAGUCCCGUACGAAACG | ≤ 0.5
GUUCCAUUGGCGUAUUGGUAACGCGUCUCCGUCCUAAGGAGAAGACUGCGGGAUUGCGUGCCGUACCGAACG | ≤ 0.5
GUUCCAUUGGCGUAAUGGUCACGCGUCUCCCUCCUAAGGAGAAGGCUGCCGGUUCGAGUACCGUACGGCACG | ≤ 0.5
GUUCCAUUGGCGUAAUGGUCACGCGUCUCCCUCCUAAGGAGAAGACUGCGGGUUCGAGUCCCGUAAGGAACG | 0.549
GUUCCAUUGGCGUAAUGGUGACGCGUCUCCCUCCUAGGGAGAAGACUGCGGGUUCGAGUCCCGUACGAGACG | ≤ 0.5
GUUCCAUUGGCGUAAUGGUGACGUGUCUCCCUCCUAAGGGGAGGACUGCGGGUUCGAGUCCCGUACGGAGCG | ≤ 0.5
GUUCCAUUGGCGUAAUGGUGACGUGUCUCCCUCCUAAGGGGAGGACUGCGGGUUUGAGUCCCGUACGGAACG | ≤ 0.5
GUUCCAUUGGCGUAAUGGUGACGUGUCUCCCUCCUAAGGGGAGGACUGCGGGUUCGAGUCCCGUAUGGAGCG | ≤ 0.5
GUUCCAUUGGCGUAAUGGUGACGCGUCUCCGUCCUAAGGAGAAGAUUGCGGGUUCGAGUCCCGUAAGGAACG | ≤ 0.5
GUUCCAUUGGCGUAAUGGUUACGCGUCUCCCUCCUAAGGAGAAGACUGCGGGUUCGAGUCCAGUACAGGACG | ≤ 0.5
GUUCCAUUGGCGUAAUGGUUACGCGUCUCCCUCCUAAGGAGAAGACUGCGGGUUCGAGUCCUGUGCGGAACG | ≤ 0.5
GUUCCAUUGGCGUAAUGGUUACGCAUCUCCCUCCUAAGGAGAAGACUGCGGGUUCGAGUCCCGUACGGAACG | 0.574
GUUCCAUUGGCGUAAUGGUUACGCAUCUCCCUCCUAAGGAGAAGACUGCGGGUUCGAGUCCCGUAUGGAACG | ≤ 0.5
GUUCCAUUGGCGUAAUGGUAACGCGUCUCCCUCCUUGGGAGAAGACUGCGGGUUCGAGUCCCGUAGGGAACG | ≤ 0.5
